{
  "source": "patent US20240336595A1",
  "about": "“BIFUNCTIONAL COMPOUNDS FOR DEGRADING BTK WITH DIMINISHED IMID ACTIVITY” (NURIX THERAPEUTICS, INC., priority 2021, published 2024)",
  "key": {"[1]": {"tested_on": "IMiD activity", "assay": "IMiD activity by western blotting", "type": "cell-based", "details": "data not shown"}, "[2]": {"tested_on": "B cells compartment", "assay": "Dosing effect on B cells compartment (B cells, plasma cells)", "type": "in vivo, C57BL/6 mice", "details": "30 mg/kg in water bottle", "description": "A separate group of mice received vehicle formulation as control. Blood spleens and femurs for each treated mice were harvested at the end of the study. Peritoneal lavage was also performed with PBS to harvest peritoneal resident lymphocyte.\nIt is plausible that Compound 1 affects one or multiple proteins that are involved either in generation or the survival of plasma cells and that this effect is independent from its ability to degrade the BTK protein. Left, representative dot plots showing the gating strategy to identify plasma cells in bone marrow. Right histograms showing cumulative data from multiple treated animals.\n(§1) An ordinary one-way ANOVA with Tukey's multiple comparisons test was performed, and all groups were compared to each other. * p<0.05, ** p<0.01,**** p<0.001. All comparisons without an asterisk were not significant."}, "[3]": {"tested_on": "plasma cell generation", "assay": "Plasma cell generation upon NP-KLH immunization", "type": "in vivo, Mice", "description": "Mice were immunized by intraperitoneal injection of 200 μL of immunogen containing 100 μg NP-32-KLH (Biosearch Technologies, Cat. N-5060-25,Lot. 156285-01) and 1% Alum (Alhydrogel, 2%, Invivogen Cat. Vac-alu-250, Batch 0001715532, Exp. July 2022), prepared in phosphate buffered saline. Group 1 mice were not immunized and used as control. Mice in Group 2 to 5 were dosed orally once a day from Day 1 to Day 7 with compounds or vehicle for six additional days and then sacrificed the following day. Splenocytes and bone marrow were harvested 24 hours following the final dosing of compound on Day 7. Spleens harvested at the end of the study were dissociated, and red blood cells were lysed with ammonium-chloride-potassium (ACK) lysis buffer. 1 million cells per tissue were stained for each flow cytometry panel.\nSplenocytes were stained for lineage markers with fluorophore-conjugated antibodies and for NP hapten reactivity with NP-conjugated to phycoerythrin (NP-PE). Live single lymphocytes were gated for B cells (CD19+B220+) and then gated for IgD+ and IgD− B cells. IgD− B cells were then gated for germinal center B cells (Fas+GL-7+), and germinal center B cells were gated for NP+ cells on the basis of staining with NP-PE.\nas §1"}},
  "note": "For some assays here: For at least one compound, name, drawing or mass did not settle the structure. Some results were stated once for a whole list of compounds, not compound by compound.",
  "data": [
    {"compound": "CN1CCN([C@@H]2CCCN(c3cnc(C(N)=O)c(Nc4ccc(C5CCN(CC6CCN(c7ccc(-c8nn(C9CCC(=O)NC9=O)c(=O)n8C)cc7)CC6)CC5)cc4)n3)C2)C1=O", "note": "(some centres unmarked) [Compound 21]", "values": [
      {"measurement": "IMiD activity by western blotting", "setting": "[1]", "result": "little or no measurable IMiD activity"}
    ]},
    {"compound": "CN1CCN([C@@H]2CCCN(c3cnc(C(N)=O)c(Nc4ccc(C5CCN(CC6CCN(c7ccc8c(=O)n(C9CCC(=O)NC9=O)ccc8c7)CC6)CC5)cc4)n3)C2)C1=O", "note": "(some centres unmarked) [Compound 20]", "values": [
      {"measurement": "IMiD activity by western blotting", "setting": "[1]", "result": "little or no measurable IMiD activity"}
    ]},
    {"compound": "C=CC(=O)N1CCC[C@@H](n2nc(-c3ccc(Oc4ccccc4)cc3)c3c(N)ncnc32)C1", "note": "[Ibrutinib, reference compound]", "values": [
      {"measurement": "plasma cells number in bone marrow", "setting": "[2]", "result": "do not alter"},
      {"measurement": "B cells percentage", "setting": "[2]; blood, spleens, peritoneum and bone marrow", "result": "does not significantly affect"},
      {"measurement": "generation of plasma cells upon immunization", "setting": "[3]; NP-KLH immunization, oral once a day Day 1 to Day 7", "result": "have no effect"},
      {"measurement": "germinal center formation", "setting": "[3]; following NP-KLH immunization", "result": "do not affect"},
      {"measurement": "number of B cells in spleen", "setting": "[3]; following NP-KLH immunization", "result": "do not affect"}
    ]},
    {"compound": "CN1CCN([C@H]2CCCN(c3cnc(C(N)=O)c(Nc4ccc(C5CCN(CC6CCN(c7ccc(NC8CCC(=O)NC8=O)cn7)CC6)CC5)cc4)n3)C2)C1=O", "note": "(some centres unmarked) [Compound 22]", "values": [
      {"measurement": "IMiD activity by western blotting", "setting": "[1]", "result": "little or no measurable IMiD activity"}
    ]}
  ]
}
